This note sets out measurements from publication PMC8466577.

By UniProt entry, the sequences of proteins in these tests, tags left out.
UniProt P09429: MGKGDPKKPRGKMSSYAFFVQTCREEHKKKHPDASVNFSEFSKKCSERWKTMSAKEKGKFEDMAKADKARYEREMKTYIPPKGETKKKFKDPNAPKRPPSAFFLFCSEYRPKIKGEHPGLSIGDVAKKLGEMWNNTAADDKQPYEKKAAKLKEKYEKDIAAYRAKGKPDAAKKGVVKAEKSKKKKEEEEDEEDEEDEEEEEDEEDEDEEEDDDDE
UniProt Q09028: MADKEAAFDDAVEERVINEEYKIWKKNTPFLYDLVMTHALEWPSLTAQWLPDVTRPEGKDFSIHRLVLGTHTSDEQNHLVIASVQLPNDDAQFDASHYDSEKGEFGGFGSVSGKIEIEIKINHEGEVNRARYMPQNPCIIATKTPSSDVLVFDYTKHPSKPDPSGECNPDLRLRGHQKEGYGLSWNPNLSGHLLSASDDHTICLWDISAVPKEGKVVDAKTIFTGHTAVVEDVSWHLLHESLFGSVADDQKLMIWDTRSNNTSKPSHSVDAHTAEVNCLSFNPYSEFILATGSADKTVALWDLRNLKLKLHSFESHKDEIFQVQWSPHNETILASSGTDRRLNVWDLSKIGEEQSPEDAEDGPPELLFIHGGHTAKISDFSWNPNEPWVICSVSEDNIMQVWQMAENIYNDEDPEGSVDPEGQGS
UniProt Q13601: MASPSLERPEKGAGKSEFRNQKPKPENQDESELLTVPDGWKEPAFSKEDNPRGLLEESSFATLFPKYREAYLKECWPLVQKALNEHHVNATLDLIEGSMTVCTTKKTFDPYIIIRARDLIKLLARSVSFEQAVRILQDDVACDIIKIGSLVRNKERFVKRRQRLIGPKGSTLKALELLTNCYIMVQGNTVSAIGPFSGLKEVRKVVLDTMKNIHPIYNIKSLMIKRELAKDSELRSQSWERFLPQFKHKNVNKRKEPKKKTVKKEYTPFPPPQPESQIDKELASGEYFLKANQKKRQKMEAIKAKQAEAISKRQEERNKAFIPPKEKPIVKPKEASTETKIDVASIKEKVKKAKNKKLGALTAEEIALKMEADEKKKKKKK
UniProt Q14839: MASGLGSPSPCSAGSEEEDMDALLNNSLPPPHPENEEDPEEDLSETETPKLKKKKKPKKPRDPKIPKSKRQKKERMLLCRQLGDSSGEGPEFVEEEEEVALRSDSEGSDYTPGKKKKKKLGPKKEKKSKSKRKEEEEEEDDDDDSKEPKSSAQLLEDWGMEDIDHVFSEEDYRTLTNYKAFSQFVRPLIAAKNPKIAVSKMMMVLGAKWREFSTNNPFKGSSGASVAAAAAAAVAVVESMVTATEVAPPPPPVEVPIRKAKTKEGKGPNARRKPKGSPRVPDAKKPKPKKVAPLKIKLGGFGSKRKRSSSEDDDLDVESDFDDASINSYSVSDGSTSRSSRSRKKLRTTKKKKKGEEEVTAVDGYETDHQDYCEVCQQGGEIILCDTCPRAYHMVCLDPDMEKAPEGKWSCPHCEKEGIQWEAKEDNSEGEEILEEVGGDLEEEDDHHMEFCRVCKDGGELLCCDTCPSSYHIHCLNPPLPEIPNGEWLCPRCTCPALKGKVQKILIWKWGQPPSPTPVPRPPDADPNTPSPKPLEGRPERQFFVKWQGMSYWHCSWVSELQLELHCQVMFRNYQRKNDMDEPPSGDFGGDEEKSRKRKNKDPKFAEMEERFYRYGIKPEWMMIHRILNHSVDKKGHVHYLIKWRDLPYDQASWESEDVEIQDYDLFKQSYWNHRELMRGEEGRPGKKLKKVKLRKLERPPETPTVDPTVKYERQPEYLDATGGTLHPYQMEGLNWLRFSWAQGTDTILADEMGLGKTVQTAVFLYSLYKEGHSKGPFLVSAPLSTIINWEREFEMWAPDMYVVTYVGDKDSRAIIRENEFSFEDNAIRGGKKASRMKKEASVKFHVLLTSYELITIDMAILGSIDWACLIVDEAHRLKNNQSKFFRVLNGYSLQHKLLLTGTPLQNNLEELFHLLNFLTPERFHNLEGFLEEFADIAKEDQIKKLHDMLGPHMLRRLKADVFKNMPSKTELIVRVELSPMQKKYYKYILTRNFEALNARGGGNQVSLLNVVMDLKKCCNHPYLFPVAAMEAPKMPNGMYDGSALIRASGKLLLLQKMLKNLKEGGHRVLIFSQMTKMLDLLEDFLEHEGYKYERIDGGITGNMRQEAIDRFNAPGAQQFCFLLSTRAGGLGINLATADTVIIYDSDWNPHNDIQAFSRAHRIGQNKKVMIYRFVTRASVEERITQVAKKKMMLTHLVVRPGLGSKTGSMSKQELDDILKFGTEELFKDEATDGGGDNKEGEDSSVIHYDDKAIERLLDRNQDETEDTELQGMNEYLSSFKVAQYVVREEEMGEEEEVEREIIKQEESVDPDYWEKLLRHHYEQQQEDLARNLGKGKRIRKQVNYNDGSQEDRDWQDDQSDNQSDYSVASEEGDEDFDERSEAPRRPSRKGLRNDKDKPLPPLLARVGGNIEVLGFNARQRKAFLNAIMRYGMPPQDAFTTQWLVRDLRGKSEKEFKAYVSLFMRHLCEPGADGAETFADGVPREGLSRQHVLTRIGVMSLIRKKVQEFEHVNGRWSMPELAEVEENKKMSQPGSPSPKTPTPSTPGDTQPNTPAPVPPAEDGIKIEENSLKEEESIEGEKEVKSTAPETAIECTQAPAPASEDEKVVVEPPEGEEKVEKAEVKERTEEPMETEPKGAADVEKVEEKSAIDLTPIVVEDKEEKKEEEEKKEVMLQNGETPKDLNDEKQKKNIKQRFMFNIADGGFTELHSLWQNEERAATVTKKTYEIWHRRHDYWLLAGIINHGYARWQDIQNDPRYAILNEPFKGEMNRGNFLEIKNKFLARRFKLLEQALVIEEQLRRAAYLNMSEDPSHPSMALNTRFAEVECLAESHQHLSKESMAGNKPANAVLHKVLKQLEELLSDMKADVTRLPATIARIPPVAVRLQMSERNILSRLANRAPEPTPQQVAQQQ
UniProt Q13547: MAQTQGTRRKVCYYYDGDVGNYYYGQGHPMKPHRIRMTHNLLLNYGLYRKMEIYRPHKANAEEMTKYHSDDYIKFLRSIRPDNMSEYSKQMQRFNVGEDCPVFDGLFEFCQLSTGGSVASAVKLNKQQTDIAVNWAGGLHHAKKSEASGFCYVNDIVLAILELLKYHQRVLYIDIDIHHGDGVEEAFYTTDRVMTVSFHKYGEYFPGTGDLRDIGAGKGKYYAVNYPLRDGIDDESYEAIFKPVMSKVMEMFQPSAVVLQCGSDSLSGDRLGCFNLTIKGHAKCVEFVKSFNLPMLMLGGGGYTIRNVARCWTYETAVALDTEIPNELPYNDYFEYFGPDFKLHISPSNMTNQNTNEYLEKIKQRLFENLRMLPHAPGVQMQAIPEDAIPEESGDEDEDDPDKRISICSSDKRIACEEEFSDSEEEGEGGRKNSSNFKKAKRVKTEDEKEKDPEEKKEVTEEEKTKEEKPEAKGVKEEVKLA
UniProt Q14137: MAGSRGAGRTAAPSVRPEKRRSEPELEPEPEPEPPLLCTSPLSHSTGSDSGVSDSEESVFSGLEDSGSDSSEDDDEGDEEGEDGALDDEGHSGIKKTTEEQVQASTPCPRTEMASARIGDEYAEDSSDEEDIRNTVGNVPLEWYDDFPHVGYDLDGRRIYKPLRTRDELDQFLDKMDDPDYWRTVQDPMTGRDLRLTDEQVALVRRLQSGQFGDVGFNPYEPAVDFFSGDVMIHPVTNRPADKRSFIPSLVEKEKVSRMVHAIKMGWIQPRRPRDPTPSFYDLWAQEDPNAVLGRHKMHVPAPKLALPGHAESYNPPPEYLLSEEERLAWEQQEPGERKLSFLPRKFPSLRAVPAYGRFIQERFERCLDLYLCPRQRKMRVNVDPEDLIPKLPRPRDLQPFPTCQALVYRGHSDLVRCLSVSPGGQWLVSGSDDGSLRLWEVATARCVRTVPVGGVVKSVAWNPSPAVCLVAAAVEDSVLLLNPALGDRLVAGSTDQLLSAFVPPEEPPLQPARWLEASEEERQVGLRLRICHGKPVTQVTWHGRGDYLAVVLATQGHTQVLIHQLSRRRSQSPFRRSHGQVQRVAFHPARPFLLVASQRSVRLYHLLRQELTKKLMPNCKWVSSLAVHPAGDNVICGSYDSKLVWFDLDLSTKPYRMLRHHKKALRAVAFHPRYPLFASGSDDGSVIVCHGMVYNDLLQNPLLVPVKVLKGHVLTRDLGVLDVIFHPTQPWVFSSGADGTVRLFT

The target of test [1] is HMGB1 (human (endogenous in SKOV-3 and PC-3)) (UniProt P09429). The experiment in a line: affinity purification with mass spectrometry; anti-HMGB1 (Abcam ab18256) crosslinked to Protein G-Dynal beads; SKOV-3 and PC-3 whole-cell lysates (three IPs each) and nuclear and cytoplasmic fractions (one each), Benzonase-treated; 4 h at 4 °C; washes with 150 mM NaCl, 0.1% NP-40; IgG control; SAINT score cut-off 0.7.

The target of test [2] is T1, THOC5 (human (endogenous in SKOV-3 and PC-3)) (UniProt Q13769).
T1 sequence: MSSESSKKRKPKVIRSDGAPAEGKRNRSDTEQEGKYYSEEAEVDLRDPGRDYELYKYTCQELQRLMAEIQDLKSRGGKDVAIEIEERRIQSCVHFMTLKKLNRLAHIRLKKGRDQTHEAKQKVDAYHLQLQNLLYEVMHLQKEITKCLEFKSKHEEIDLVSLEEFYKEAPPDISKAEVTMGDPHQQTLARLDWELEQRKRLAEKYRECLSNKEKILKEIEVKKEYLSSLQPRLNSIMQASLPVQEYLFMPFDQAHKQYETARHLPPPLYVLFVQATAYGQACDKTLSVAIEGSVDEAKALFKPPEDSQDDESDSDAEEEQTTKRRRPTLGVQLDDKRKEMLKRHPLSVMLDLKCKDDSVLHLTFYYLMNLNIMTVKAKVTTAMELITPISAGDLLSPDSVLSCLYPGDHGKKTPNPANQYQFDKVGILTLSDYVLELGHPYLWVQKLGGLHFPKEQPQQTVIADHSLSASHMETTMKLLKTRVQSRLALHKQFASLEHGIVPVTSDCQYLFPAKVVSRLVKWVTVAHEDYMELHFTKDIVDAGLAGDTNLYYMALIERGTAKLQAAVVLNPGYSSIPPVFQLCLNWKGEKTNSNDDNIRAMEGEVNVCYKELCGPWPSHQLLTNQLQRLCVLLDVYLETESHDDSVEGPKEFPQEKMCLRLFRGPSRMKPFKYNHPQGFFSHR
Description: affinity purification with mass spectrometry; anti-THOC5 (Abcam ab86070) crosslinked to Protein G-Dynal beads; PC-3 lysate, Benzonase-treated; 4 h at 4 °C; IgG control; SAINT score cut-off 0.7.

Test [3] concerns the target HMGB1 (human (endogenous in SKOV-3 and PC-3)) (UniProt P09429). Description: affinity purification with mass spectrometry; anti-HMGB1 (Abcam ab18256) crosslinked to Protein G-Dynal beads; SKOV-3 and PC-3 whole-cell lysates (three IPs each) and nuclear and cytoplasmic fractions (one each), Benzonase-treated; 4 h at 4 °C; washes with 150 mM NaCl, 0.1% NP-40; IgG control; SAINT score cut-off 0.7. The source holds these as a separate data set.

Where two headings read alike, the source gives them in different places. These are yes or no findings as the source states them, for the method shown. Binding seen in cells or lysates may run through a third protein. Here binding means that the protein was enriched with, or labelled near, the bait; the list need not be complete.

For the molecule RBBP4 (from UniProt Q09028 1-425), the binding result in test [1] is listed as “binds”. The same measure, in the same setting: as for KRR1 (from UniProt Q13601 1-381), the entry is “binds”; as for CHD4 (from UniProt Q14839 1-1912), “binds”. Still for that read-out and setting: next, LYAR (from UniProt Q9NX58 1-379): “binds”. Consider HDAC1 (from UniProt Q13547 1-482), for which, in test [1], the binding result is reported as “binds”. As to BOP1 (from UniProt Q14137 1-746), the binding entry in test [1] is recorded as “binds”.

B1: SEPT11 (protein, UniProt Q9NVA2 1-429)
chain: MAVAVGRPSNEELRNLSLSGHVGFDSLPDQLVNKSTSQGFCFNILCVGETGIGKSTLMDTLFNTKFESDPATHNEPGVRLKARSYELQESNVRLKLTIVDTVGFGDQINKDDSYKPIVEYIDAQFEAYLQEELKIKRSLFNYHDTRIHACLYFIAPTGHSLKSLDLVTMKKLDSKVNIIPIIAKADTIAKNELHKFKSKIMSELVSNGVQIYQFPTDEETVAEINATMSVHLPFAVVGSTEEVKIGNKMAKARQYPWGVVQVENENHCDFVKLREMLIRVNMEDLREQTHTRHYELYRRCKLEEMGFKDTDPDSKPFSLQETYEAKRNEFLGELQKKEEEMRQMFVMRVKEKEAELKEAEKELHEKFDLLKRTHQEEKKKVEDKKKELEEEVNNFQKKKAAAQLLQSQAQQSGAQQTKKDKDKKNASFT
Consider B1, for which the binding entry in test [2] and in test [3] was “binds” each time.

B2: SEPT2 (protein, UniProt Q15019 1-361)
chain: MSKQQPTQFINPETPGYVGFANLPNQVHRKSVKKGFEFTLMVVGESGLGKSTLINSLFLTDLYPERVIPGAAEKIERTVQIEASTVEIEERGVKLRLTVVDTPGYGDAINCRDCFKTIISYIDEQFERYLHDESGLNRRHIIDNRVHCCFYFISPFGHGLKPLDVAFMKAIHNKVNIVPVIAKADTLTLKERERLKKRILDEIEEHNIKIYHLPDAESDEDEDFKEQTRLLKASIPFSVVGSNQLIEAKGKKVRGRLYPWGVVEVENPEHNDFLKLRTMLITHMQDLQEVTQDLHYENFRSERLKRGGRKVENEDMNKDQILLEKEAELRRMQEMIARMQAQMQMQMQGGDGDGGALGHHV
For B2, the binding result in test [2] and in test [3] was “binds” each time.

B3: THOC1 (protein, UniProt Q96FV9 1-657)
chain: MSPTPPLFSLPEARTRFTKSTREALNNKNIKPLLSTFSQVPGSENEKKCTLDQAFRGILEEEIINHSSCENVLAIISLAIGGVTEGICTASTPFVLLGDVLDCLPLDQCDTIFTFVEKNVATWKSNTFYSAGKNYLLRMCNDLLRRLSKSQNTVFCGRIQLFLARLFPLSEKSGLNLQSQFNLENVTVFNTNEQESTLGQKHTEDREEGMDVEEGEMGDEEAPTTCSIPIDYNLYRKFWSLQDYFRNPVQCYEKISWKTFLKYSEEVLAVFKSYKLDDTQASRKKMEELKTGGEHVYFAKFLTSEKLMDLQLSDSNFRRHILLQYLILFQYLKGQVKFKSSNYVLTDEQSLWIEDTTKSVYQLLSENPPDGERFSKMVEHILNTEENWNSWKNEGCPSFVKERTSDTKPTRIIRKRTAPEDFLGKGPTKKILMGNEELTRLWNLCPDNMEACKSETREHMPTLEEFFEEAIEQADPENMVENEYKAVNNSNYGWRALRLLARRSPHFFQPTNQQFKSLPEYLENMVIKLAKELPPPSEEIKTGEDEDEEDNDALLKENESPDVRRDKPVTGEQIEVFANKLGEQWKILAPYLEMKDSEIRQIECDSEDMKMRAKQLLVAWQDQEGVHATPENLINALNKSGLSDLAESLTNDNETNS
On to B3, for which the binding entry in test [2] and in test [3] was “binds” each time.

B4: SEPT9 (protein, UniProt Q9UHD8 1-586)
chain: MKKSYSGGTRTSSGRLRRLGDSSGPALKRSFEVEEVETPNSTPPRRVQTPLLRATVASSTQKFQDLGVKNSEPSARHVDSLSQRSPKASLRRVELSGPKAAEPVSRRTELSIDISSKQVENAGAIGPSRFGLKRAEVLGHKTPEPAPRRTEITIVKPQESAHRRMEPPASKVPEVPTAPATDAAPKRVEIQMPKPAEAPTAPSPAQTLENSEPAPVSQLQSRLEPKPQPPVAEATPRSQEATEAAPSCVGDMADTPRDAGLKQAPASRNEKAPVDFGYVGIDSILEQMRRKAMKQGFEFNIMVVGQSGLGKSTLINTLFKSKISRKSVQPTSEERIPKTIEIKSITHDIEEKGVRMKLTVIDTPGFGDHINNENCWQPIMKFINDQYEKYLQEEVNINRKKRIPDTRVHCCLYFIPATGHSLRPLDIEFMKRLSKVVNIVPVIAKADTLTLEERVHFKQRITADLLSNGIDVYPQKEFDEDSEDRLVNEKFREMIPFAVVGSDHEYQVNGKRILGRKTKWGTIEVENTTHCEFAYLRDLLIRTHMQNIKDITSSIHFEAYRVKRLNEGSSAMANGMEEKEPEAPEM
Take B4: the binding result in test [2] and in test [3] was “binds” in each case.

B5: THOC6 (protein, UniProt Q86W42 1-341)
chain: MERAVPLAVPLGQTEVFQALQRLHMTIFSQSVSPCGKFLAAGNNYGQIAIFSLSSALSSEAKEESKKPVVTFQAHDGPVYSMVSTDRHLLSAGDGEVKAWLWAEMLKKGCKELWRRQPPYRTSLEVPEINALLLVPKENSLILAGGDCQLHTMDLETGTFTRVLRGHTDYIHCLALRERSPEVLSGGEDGAVRLWDLRTAKEVQTIEVYKHEECSRPHNGRWIGCLATDSDWMVCGGGPALTLWHLRSSTPTTIFPIRAPQKHVTFYQDLILSAGQGRCVNQWQLSGELKAQVPGSSPGLLSLSLNQQPAAPECKVLTAAGNSCRVDVFTNLGYRAFSLSF
As for B5, the binding entry in test [2] and in test [3] was “binds” each time.
